Measured values published in PubChem BioAssay AID602313 (National Center for Advancing Translational Sciences (NCATS), 2012).
The whole screen tested about 390,000 compounds, of which about 760 (0.19%) were called active. This list was built around the results that the source calls inconclusive (neither active nor inactive); the mix of calls is not that of the screen. Calls follow the shape of the dose curve; as a rule, active = well fitted inhibition curve with a large enough effect; inconclusive = small, poorly fitted or top-dose-only effect; inactive = flat fitted curve, though single readings scatter. Potencies beside an inconclusive call are fits to weak or partial responses and may not hold up.
Potency is read from the fitted curve at half-maximal effect.

Test: qHTS for Inhibitors of Vif-A3F Interactions: qHTS; also: nearly all actives have a fitted effect of over 65% in size
Details: HeLa A3F-eYFP + Vif (tagged APOBEC3F with the HIV-1 protein that degrades it), YFP fluorescence increase; series mostly up to 46.1 µM
Summary of the method: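 HeLa cells stably expressing Vif plus C-terminally eYFP-tagged A3F were seeded, incubated overnight at 37 deg C, dosed with compound, incubated overnight again at 37 deg C. Yellow fluorescence (Ex 488/Em 500-530) reported blocked Vif-mediated A3F-eYFP degradation.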
With `CCCn1c(/C=N/Nc2nc3ccccc3[nH]2)nc2ccccc21` the Potency was inconclusive: 15.8 µM [inhibitor, single point].
With `O=C1C=CC(=Nc2cccc3c2C(=O)c2ccccc2-3)O1` the Potency was “inactive”.
In the case of `CCC[C@@H](CNC)NC[C@H](Cc1ccccc1)NCCCCc1ccccc1`, the Potency is reported as “inactive”.
For `O=S(=O)(Nc1nc2ccccc2nc1Nc1ccc2c(c1)OCCO2)c1cccs1`, the Potency was active: 11.2 µM.
For `Cc1ccc(C)c(NC(=S)NCCc2ccc(F)cc2)c1`, the Potency was inconclusive: 22.4 µM [inhibitor, partial curve, poor fit].
With `Cc1cccc2cc(C#N)c(SCC(=O)N3CC(=O)Nc4ccccc43)nc12` the Potency was inconclusive: 15.8 µM [inhibitor, partial curve, poor fit].
In the case of `CC(=O)c1cc2c(cc1NS(=O)(=O)c1ccccc1Br)OCO2`, the Potency is reported as “inactive”.
For `CCOC(=O)c1ccc(Nc2nc3ccccc3nc2NS(=O)(=O)c2ccc(Cl)cc2)cc1`, the Potency was active: 7.08 µM.
In the case of `Cc1sc2ncnc(N(C)Cc3ccco3)c2c1C`, the Potency is reported as “inactive”.
With `COc1cc(OC)c(OC)cc1/C=C1\CCC/C(=C\c2cc(OC)c(OC)cc2OC)C1=O` the Potency was inconclusive: 7.08 µM [inhibitor, partial curve, poor fit].
With `Cc1ccc(-c2c(CN3CCN(c4cccc(C(F)(F)F)c4)CC3)csc2C)cc1` the Potency was “inactive”.
In the case of `CC(C)(C)C(=O)Oc1ccc2cc(-c3ccc4ccccc4n3)c(=O)oc2c1`, the Potency is reported as inconclusive: 35.5 µM [inhibitor, partial curve, poor fit].
For `COCCCn1c(=O)/c(=C/c2ccccc2OC(C)C)s/c1=C(\C#N)C(=O)Nc1ccc(C(=O)O)cc1`, the Potency was inconclusive: 14.1 µM [inhibitor, single point].
For `COc1ccc(C)c2sc(N(CCN(C)C)C(=O)c3ccc4ccccc4c3)nc12`, the Potency was inconclusive: 35.5 µM [inhibitor, single point].
For `Cc1ccc2c(c1)/C(=C/c1ccccc1C)C(=O)N2`, the Potency was inconclusive: 6.31 µM [inhibitor, single point].
In the case of `C=CCOc1ccc(/C=N/N2C(=O)C(CC(=O)Nc3ccc(F)cc3F)SC2=NC)cc1` (stereo not drawn), the Potency is reported as inconclusive: 15.8 µM [inhibitor, partial curve, poor fit].
In the case of `Cc1ccc(S(=O)(=O)c2nc(-c3ccccc3)oc2NCc2cccnc2)cc1`, the Potency is reported as inconclusive: 3.16 µM [inhibitor, single point].
In the case of `CCOc1ccc(-c2nc(SCC(=O)Nc3ccc4c(c3)OCO4)c(-c3ccc(F)cc3)[nH]2)cc1`, the Potency is reported as inconclusive: 12.6 µM [inhibitor, single point].
For `CCOC(=O)Nc1ccc(NCc2ccc(F)cc2)nc1N`, the Potency was inconclusive: 35.5 µM [inhibitor, single point].
For `Cc1noc(C)c1COC(=O)CCOc1ccccc1`, the Potency was “inactive”.
In the case of `CCCOc1ccc(OCCSc2ncccn2)cc1`, the Potency is reported as “inactive”.
In the case of `Cn1cncc1C#Cc1c(-c2ccc(S(C)(=O)=O)cc2)sc2ccccc12`, the Potency is reported as “inactive”.
In the case of `Oc1ccc(Cl)cc1C1=Nc2ccccc2N=C(c2ccco2)C1`, the Potency is reported as inconclusive: 20 µM [inhibitor, partial curve, poor fit].
In the case of `Nc1c(C(=O)N/N=C/c2ccccc2Cl)oc2nc(-c3ccccc3)cc(-c3ccco3)c12`, the Potency is reported as active: 7.08 µM.
With `CCN(CC)CCNC(=O)C1(c2ccccc2)CCCCC1` the Potency was inconclusive: 12.6 µM [inhibitor, single point].
In the case of `O=C1NC(=O)/C(=C/c2ccc(N3CCOCC3)o2)N1`, the Potency is reported as “inactive”.
With `Cc1ccc(C)c(-c2csc(Nc3ncccn3)n2)c1` the Potency was “inactive”.
In the case of `C=C(C)CNC(=S)N/N=C\c1ccc2c(c1)OCO2`, the Potency is reported as inconclusive: 11.2 µM [inhibitor, partial curve, poor fit].
In the case of `CC1=Nc2ccccc2/C1=C/c1sc(=S)n(-c2cccc(C(=O)O)c2)c1O`, the Potency is reported as inconclusive: 3.98 µM [inhibitor, partial curve, poor fit].
With `c1ccc(N2CCCCC2)c(NC2=NCCC2)c1` the Potency was inconclusive: 6.31 µM [inhibitor, single point].
For `Cc1cc(N2CCN(c3ccccc3)CC2)nc2ccccc12`, the Potency was “inactive”.
In the case of `CCCNC(=S)Nc1ccc2nc(-c3ccccn3)c(-c3ccccn3)nc2c1`, the Potency is reported as inconclusive: 35.5 µM [inhibitor, single point].
With `Cc1ccc(C)c(N2CN(Cc3ccco3)CNC2=S)c1` the Potency was inconclusive: 25.1 µM [inhibitor, single point].
In the case of `Cc1cccn2c(=O)c3cc(S(=O)(=O)c4ccc(F)cc4)c(=N)n(Cc4ccco4)c3nc12`, the Potency is reported as “inactive”.
In the case of `COc1ccccc1Nc1c2ccccc2nc2ccccc12`, the Potency is reported as inconclusive: 35.5 µM [inhibitor, single point].
For `O=C(NCc1ccccc1)C(c1ccc(F)cc1)N(C(=O)c1csnn1)C1CCCC1` (stereo not drawn), the Potency was inconclusive: 35.5 µM [inhibitor, single point].
In the case of `CC(=O)c1cccc(NC(=O)C2CCN(S(=O)(=O)c3ccc4c(c3)oc(=O)n4C)CC2)c1`, the Potency is reported as “inactive”.
With `COc1ccc(Br)c(C(=O)NCC2CCCCC2)c1` the Potency was inconclusive: 25.1 µM [inhibitor, single point].
With `C/C(N)=C(/C#N)C(=O)COC(=O)CCCNC(=O)c1ccc(Cl)cc1` the Potency was inconclusive: 3.98 µM [inhibitor, partial curve, poor fit].
With `CSc1nc(-c2ccco2)nn1C(=O)c1cccs1` the Potency was “inactive”.
In the case of `COCCCNC(=S)N/N=C/c1ccc(OC)c(Br)c1`, the Potency is reported as inconclusive: 35.5 µM [inhibitor, single point].
In the case of `CCOc1cc([N+](=O)[O-])cc2c1C(=O)Nc1ccccc1O2`, the Potency is reported as active: 22.4 µM.
With `Cc1ccc(C(=O)c2cn(CC(=O)Nc3ccc(C)cc3Cl)c3nc(C)ccc3c2=O)cc1` the Potency was inconclusive: 12.6 µM [inhibitor, partial curve, poor fit].
In the case of `COC(=O)c1c(NC(=O)CSc2ncnc3[nH]ncc23)sc2c1CCC2`, the Potency is reported as inconclusive: 10 µM [inhibitor, partial curve].
For `COc1cccc(Nc2nc(-c3sc(N)nc3C)cs2)c1`, the Potency was “inactive”.
In the case of `COc1cc(/C=C(\C#N)c2nc3ccccc3[nH]2)cc(OC)c1O`, the Potency is reported as inconclusive: 3.55 µM [inhibitor, partial curve, poor fit].
With `O=C(CN1C(=O)NC(c2ccccc2)(c2ccccc2)C1=O)NCCNCCO` the Potency was inconclusive: 3.16 µM [inhibitor, partial curve, poor fit].
For `CC(C)CC1NC(=O)N(CC(=O)Nc2ccc3c(c2)CCC3)C1=O` (stereo not drawn), the Potency was inconclusive: 10 µM [inhibitor, single point].
For `CN1CCN(C(=S)c2ccc(-c3cccc(Cl)c3Cl)o2)CC1`, the Potency was inconclusive: 3.98 µM [inhibitor, single point].
For `COCc1c(C(=O)OCC(=O)c2ccc[nH]2)oc2ccccc12`, the Potency was inconclusive: 2.82 µM [inhibitor, single point].
With `CC(Nc1c[nH]c(=O)[nH]c1=O)c1ccccc1` (stereo not drawn) the Potency was inconclusive: 35.5 µM [inhibitor, single point].
For `CCOc1ccc(N2C(=O)CS/C2=C(\C(Cl)=C(Cl)Cl)[N+](=O)[O-])cc1`, the Potency was inconclusive: 35.5 µM [inhibitor, single point].
For `CCCNC(=O)c1nc(C)n(-c2cc(Cl)ccc2Cl)n1`, the Potency was inconclusive: 20 µM [inhibitor, partial curve, poor fit].
For `CCN(Cc1nc2cc(Cl)ccc2c(=O)[nH]1)C(=O)c1cc2c(s1)CCCCC2`, the Potency was inconclusive: 11.2 µM [inhibitor, partial curve, poor fit].
In the case of `COc1ccc(/C(N)=N/OC(=O)c2ccc([N+](=O)[O-])c(C)c2)cc1OC`, the Potency is reported as inconclusive: 6.31 µM [inhibitor, single point].
In the case of `COc1ccc(/C=C2/Sc3ccc(C(=O)NCCCN4CCOCC4)cc3NC2=O)cc1OC`, the Potency is reported as inconclusive: 35.5 µM [inhibitor, single point].
For `COc1ccc(CCCC(=O)NCc2ccccc2)cc1C`, the Potency was inconclusive: 8.91 µM [inhibitor, partial curve, poor fit].
For `Cc1cc(C)nc(SSc2nc(C)cc(C)n2)n1`, the Potency was inconclusive: 7.94 µM [inhibitor, partial curve, poor fit].
With `O=C(Cn1nnc(-c2ccccc2Cl)n1)Nc1ccc(Br)cc1` the Potency was inconclusive: 17.8 µM [inhibitor, partial curve, poor fit].
With `COC(=O)c1ccc(OCC2c3cc(OC)c(OC)cc3CCN2C(=O)c2ccc(F)cc2)cc1` (stereo not drawn) the Potency was “inactive”.
With `O=C(CCc1nc2ccccc2s1)NCc1ccccc1F` the Potency was “inactive”.
For `Cc1ccc(NC(=O)c2cc(-c3ccccc3O)n[nH]2)cc1Cl`, the Potency was inconclusive: 1.78 µM [inhibitor, partial curve, poor fit].
With `CCn1cc(C(=O)OCC(=O)Nc2cccc(C(C)=O)c2)c(=O)c2ccc(C)nc21` the Potency was “inactive”.
In the case of `COC(=O)c1ccccc1NC(=O)Cn1c(-c2nonc2N)nc2ccccc21`, the Potency is reported as inconclusive: 11.2 µM [inhibitor, partial curve, poor fit].
With `O=S(=O)(Nc1n[nH]c(C(F)(F)F)n1)c1ccccc1` the Potency was inconclusive: 2.51 µM [inhibitor, full curve, poor fit].
With `NC(=O)Nc1ccc(C(=O)OCC(=O)Nc2ccc(Cl)cn2)cc1` the Potency was inconclusive: 35.5 µM [inhibitor, single point].
In the case of `CN(C)S(=O)(=O)c1cccc(NC(=O)c2cc3c(=O)n4ccccc4nc3s2)c1`, the Potency is reported as inconclusive: 35.5 µM [inhibitor, single point].
With `COC(=O)C1=C(C)N(Cc2ccccc2)C(=O)/C1=C\c1ccco1` the Potency was inconclusive: 11.2 µM [inhibitor, partial curve, poor fit].
